# Measured values from PMC7641760.
# System: human alpha-thrombin (Homo sapiens)
# Test: EMSA
# Conditions: Kd printed only in graph, EMSA: 1x binding buffer (PBSMT pH 7.2: 137 mM NaCl, 2.68 mM KCl, 8.1 mM Na2HPO4, 1.76 mM KH2PO4, 1 mM MgCl2, 0.025% Tween-20), <50 pM 32P-DNA, 30 min, commercial protein, folded or branched DNA; for binding result: label: 32P
Sequence,binding result,other results
ATCTCGACTAGTCATAGGGGGCGCGAACATACGCGGTTGGTGTGGTTGGCTGACAATACTCGT [LTBA4T],binds more weakly,
ATCTCGACTAGTCATTTTTTTTTTTTTTTTTTTTGGTTGGTGTGGTTGGTTTTTTTTTTTTTTTTTTTTTGTCTCGGAT [CTBA4MT],,binding result (circular (5'-3' ligated)): binds more weakly
ATCTCGAGTCATAGGGGGCGCGAACATACGCGGTTGGTGTGGTTGGCTGACTCGT [LTBA4T-B1],binds more weakly,
GGTTGGTGTGGTTGG [TBA15],,"binding signal (label: 32P (direct EMSA), unlabeled as competitor, scale: fold weaker than CTBA4T): 800"

# The comparison behind a weaker result is the experiment's own reference, which may not be listed here. For at least one entry, the source does not settle the construct or the ends of the probe. Whether high values mean tight binding is not given here for every scale.
